These are yes or no findings as the source states them, for the method shown. Some binding calls cover weakened binding; strength is not graded here.
Biological target: T1, murine CSF-1R on M-NFS-60 cells (mouse) (UniProt P09581)
T1 sequence (looked up): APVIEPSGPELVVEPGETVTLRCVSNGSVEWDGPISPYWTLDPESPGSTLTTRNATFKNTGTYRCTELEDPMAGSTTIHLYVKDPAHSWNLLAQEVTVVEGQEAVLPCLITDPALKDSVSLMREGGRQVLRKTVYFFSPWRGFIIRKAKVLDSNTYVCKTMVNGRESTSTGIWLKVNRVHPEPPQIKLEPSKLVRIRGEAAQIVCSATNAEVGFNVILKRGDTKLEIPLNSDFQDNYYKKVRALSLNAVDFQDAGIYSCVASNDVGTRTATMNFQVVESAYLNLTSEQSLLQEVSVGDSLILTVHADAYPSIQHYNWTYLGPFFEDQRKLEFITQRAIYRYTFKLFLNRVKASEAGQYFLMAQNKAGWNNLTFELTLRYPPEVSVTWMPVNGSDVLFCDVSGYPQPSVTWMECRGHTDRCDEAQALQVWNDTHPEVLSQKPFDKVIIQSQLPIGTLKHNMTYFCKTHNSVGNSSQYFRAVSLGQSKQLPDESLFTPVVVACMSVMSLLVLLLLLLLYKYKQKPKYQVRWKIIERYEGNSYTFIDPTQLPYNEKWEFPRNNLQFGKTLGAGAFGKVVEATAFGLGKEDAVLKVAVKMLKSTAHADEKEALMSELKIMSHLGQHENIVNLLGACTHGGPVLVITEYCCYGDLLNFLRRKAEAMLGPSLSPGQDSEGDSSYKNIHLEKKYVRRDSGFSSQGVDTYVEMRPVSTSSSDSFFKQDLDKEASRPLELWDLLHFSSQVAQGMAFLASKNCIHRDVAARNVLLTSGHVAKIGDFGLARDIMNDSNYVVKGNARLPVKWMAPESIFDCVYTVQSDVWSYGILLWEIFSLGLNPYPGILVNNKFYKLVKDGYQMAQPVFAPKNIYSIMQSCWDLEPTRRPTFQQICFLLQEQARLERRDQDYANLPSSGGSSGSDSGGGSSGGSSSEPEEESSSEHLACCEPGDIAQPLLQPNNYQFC
Assay: flow cytometry on M-NFS-60 cells

B1: recombinant murine CSF-1 (ligand, mouse, UniProt P07141 33-188, looked up)
chain: KEVSEHCSHMIGNGHLKVLQQLIDSQMETSCQIAFEFVDQEQLDDPVCYLKKAFFLVQDIIDETMRFKDNTPNANATERLQELSNNLNSCFTKDYEEQNKACVRTFHETPLQLLEKIKNFFNETKNLLEKDWNIFTKNCNNSFAKCSSRDVVTKPD
binding: binds

Source: US20160200820A1
